In PMC4639722, “Dihydrotanshinone-I interferes with the RNA-binding activity of HuR affecting its post-transcriptional function” (Scientific Reports, 2015):
For at least one entry, the source does not settle the construct or the ends of the probe. For part of these data: Results from cells or extracts need not show a direct contact. For part of these data: At least one verdict was read from the data and is not stated in words by the source.

Chains of the proteins cited; added tags and fusions are not shown. Lines headed by an entry give the natural chain unless they say otherwise; changes in a name come on top.
UniProt Q14103: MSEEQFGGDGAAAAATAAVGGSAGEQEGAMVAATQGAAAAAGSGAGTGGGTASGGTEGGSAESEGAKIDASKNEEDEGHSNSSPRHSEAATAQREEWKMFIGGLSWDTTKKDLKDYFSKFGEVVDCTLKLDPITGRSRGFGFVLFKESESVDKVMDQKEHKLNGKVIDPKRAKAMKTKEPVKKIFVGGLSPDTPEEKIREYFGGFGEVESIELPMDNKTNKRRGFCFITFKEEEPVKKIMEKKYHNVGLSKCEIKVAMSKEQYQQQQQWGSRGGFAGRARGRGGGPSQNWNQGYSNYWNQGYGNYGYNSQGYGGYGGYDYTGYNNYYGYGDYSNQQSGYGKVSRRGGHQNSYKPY
UniProt Q15717, whole entry: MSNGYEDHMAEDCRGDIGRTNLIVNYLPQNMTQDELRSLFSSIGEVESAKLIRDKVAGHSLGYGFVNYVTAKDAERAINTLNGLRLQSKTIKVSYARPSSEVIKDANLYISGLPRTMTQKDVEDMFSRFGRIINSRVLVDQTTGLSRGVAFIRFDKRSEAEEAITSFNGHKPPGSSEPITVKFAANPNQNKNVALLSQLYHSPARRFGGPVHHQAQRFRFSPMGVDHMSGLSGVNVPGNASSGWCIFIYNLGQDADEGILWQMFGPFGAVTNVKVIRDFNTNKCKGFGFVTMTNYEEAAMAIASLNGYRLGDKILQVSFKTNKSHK

What was measured:
[1] = target: hnRNP-D/AUF1, endogenous MCF-7 (human) (UniProt Q14103); test: pull-down; settings: 0.5 uM RNA, DHTS difference only upon LPS; pull-down lysates: 20 mM HEPES pH 7.5, 50 mM KCl, 0.5 ug BSA, 0.25% glycerol, 4 C; protein in an extract; label: 5'-biotin
[2] = target: HuR, endogenous MCF-7 (human) (UniProt Q15717); test: pull-down; settings: 0.5 uM RNA, reduced in lysate of DHTS-treated cells; pull-down lysates: 20 mM HEPES pH 7.5, 50 mM KCl, 0.5 ug BSA, 0.25% glycerol, 4 C; protein in an extract; label: 5'-biotin
[3] = target: HuR full length (rHuR) (human) (UniProt Q15717); test: AlphaScreen; settings: no DHTS, constant from ref 23 used for Ki fits; recombinant protein; residues 1-326; protein details: cMyc-His; label: 5'-biotin

AUUAUUUAUUAUUUAUUUAUUAUUUA [BiTNF] was tested, and the binding result [1] was “binds”, the binding result [2] was “binds” and the Kd [3] was 2.5 nM.
